No constants are given. Whether binding was seen depends on the method and setting.

This assay addresses T1, CsdE, SufE-like sulfur acceptor (E. coli), P0AGF2.
T1 chain: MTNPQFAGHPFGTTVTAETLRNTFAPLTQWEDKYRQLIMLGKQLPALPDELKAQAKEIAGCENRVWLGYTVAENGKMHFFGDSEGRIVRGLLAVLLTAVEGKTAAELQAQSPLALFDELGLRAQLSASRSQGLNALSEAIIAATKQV
As to the kind of experiment: cross-linking; BMOE (8.0 Å, sulfhydryl to sulfhydryl) 0.2 mM, 1 h, 25°C; CsdE and TcdA 1:1 (80 μM) in 20 mM sodium/potassium phosphate, 450 mM NaCl, 0.5 mM EDTA, pH 7.4, after 1 mM TCEP; controls with CsdE or TcdA alone; SDS-PAGE; both purified. The conditions noted are these: remark: other sources report otherwise.

B1: CsdE, SufE-like sulfur acceptor, P0AGF2 1-147 (protein)
chain: T1 chain
In the case of B1, the binding result is on record as “no binding (tested: 80 μM)”.

For the origin of these results see PMC4405576, “The Crystal Structure and Small-Angle X-Ray Analysis of CsdL/TcdA Reveal a New tRNA Binding Motif in the MoeB/E1 Superfamily” (PLoS ONE, 2015).
